The results in this text go back to publication PMC9873567.

Sequences of proteins named here, by UniProt entry; tags and fusion partners are left off.
UniProt Q9LS26: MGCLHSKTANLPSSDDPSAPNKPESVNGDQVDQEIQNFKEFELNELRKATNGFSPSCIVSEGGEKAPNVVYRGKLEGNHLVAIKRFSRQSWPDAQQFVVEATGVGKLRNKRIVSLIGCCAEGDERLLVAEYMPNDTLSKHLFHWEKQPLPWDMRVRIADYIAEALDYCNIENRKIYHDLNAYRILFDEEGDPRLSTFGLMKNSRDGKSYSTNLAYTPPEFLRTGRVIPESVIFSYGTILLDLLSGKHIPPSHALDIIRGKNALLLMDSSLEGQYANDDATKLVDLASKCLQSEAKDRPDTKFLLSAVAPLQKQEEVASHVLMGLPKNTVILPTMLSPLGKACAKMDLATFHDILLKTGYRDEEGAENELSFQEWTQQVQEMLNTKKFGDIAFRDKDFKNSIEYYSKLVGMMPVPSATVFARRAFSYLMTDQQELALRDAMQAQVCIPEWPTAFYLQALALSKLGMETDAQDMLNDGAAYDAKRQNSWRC

These are yes or no findings as the source states them, for the method shown. Sequences can lack the tags named with a protein.

In test [1] the target is T1, BD-PUB30 (full length PUB30 as bait) (Arabidopsis thaliana) (UniProt Q058P4).
T1 sequence: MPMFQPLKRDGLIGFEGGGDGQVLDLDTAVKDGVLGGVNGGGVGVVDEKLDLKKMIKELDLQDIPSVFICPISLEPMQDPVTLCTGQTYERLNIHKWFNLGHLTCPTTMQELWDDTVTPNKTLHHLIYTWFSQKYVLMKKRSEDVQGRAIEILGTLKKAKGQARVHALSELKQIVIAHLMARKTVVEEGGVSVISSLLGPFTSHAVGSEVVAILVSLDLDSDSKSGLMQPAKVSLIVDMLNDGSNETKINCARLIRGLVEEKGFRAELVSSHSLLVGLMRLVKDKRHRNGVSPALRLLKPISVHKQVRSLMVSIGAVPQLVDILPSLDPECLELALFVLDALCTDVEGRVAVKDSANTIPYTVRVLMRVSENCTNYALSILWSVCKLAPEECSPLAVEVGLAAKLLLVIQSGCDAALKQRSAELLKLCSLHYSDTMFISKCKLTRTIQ
Kind of test: two-hybrid; yeast strain AH109; bait on the DNA-binding domain (pGBKT7), prey on the activation domain (pGADT7); growth on SD (-Trp, -Leu, -His) with 1 mM 3-AT, tenfold serial dilutions.

Test [2] has as its target T2, BD-PUB31 (full length PUB31 as bait) (Arabidopsis thaliana) (UniProt Q9FHN9).
T2 sequence: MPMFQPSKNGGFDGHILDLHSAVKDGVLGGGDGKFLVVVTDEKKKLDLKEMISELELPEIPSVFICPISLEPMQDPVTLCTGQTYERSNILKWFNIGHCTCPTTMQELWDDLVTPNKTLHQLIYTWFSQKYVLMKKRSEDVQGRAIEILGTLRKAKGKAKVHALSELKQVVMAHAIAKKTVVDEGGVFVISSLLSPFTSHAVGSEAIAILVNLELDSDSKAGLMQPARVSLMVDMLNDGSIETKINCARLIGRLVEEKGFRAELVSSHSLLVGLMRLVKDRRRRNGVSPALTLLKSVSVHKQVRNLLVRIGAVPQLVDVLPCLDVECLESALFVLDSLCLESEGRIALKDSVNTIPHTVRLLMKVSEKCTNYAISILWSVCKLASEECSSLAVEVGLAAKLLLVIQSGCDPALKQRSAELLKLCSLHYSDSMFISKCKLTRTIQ
The description is as above.

For the substance “BSK2 (yeast two-hybrid) (from UniProt Q9LS26 1-489)”, the binding result in test [1] and in test [2] was “no binding” each time.
